This assay deals with Glioma-associated oncogene 1 (GLI1), cytoplasmic, endogenous (human (endogenous in PLC/PRF/5 and Hep3B)) (UniProt P08151). Put plainly: co-IP; cytoplasmic extracts of PLC/PRF/5 PCAF cells and of wild-type Hep3B cells; immunoprecipitation buffer 50 mM Tris-HCl pH 8.0, 150 mM NaCl, 5 mM EDTA, 0.5% NP-40; primary antibodies against PCAF and GLI1 or IgG, 4 °C overnight; western immunoblotting. (Immunoblotting shows a protein as a band on a membrane.)

Amino acid sequences for entries named in this document (tags omitted).
UniProt P08151: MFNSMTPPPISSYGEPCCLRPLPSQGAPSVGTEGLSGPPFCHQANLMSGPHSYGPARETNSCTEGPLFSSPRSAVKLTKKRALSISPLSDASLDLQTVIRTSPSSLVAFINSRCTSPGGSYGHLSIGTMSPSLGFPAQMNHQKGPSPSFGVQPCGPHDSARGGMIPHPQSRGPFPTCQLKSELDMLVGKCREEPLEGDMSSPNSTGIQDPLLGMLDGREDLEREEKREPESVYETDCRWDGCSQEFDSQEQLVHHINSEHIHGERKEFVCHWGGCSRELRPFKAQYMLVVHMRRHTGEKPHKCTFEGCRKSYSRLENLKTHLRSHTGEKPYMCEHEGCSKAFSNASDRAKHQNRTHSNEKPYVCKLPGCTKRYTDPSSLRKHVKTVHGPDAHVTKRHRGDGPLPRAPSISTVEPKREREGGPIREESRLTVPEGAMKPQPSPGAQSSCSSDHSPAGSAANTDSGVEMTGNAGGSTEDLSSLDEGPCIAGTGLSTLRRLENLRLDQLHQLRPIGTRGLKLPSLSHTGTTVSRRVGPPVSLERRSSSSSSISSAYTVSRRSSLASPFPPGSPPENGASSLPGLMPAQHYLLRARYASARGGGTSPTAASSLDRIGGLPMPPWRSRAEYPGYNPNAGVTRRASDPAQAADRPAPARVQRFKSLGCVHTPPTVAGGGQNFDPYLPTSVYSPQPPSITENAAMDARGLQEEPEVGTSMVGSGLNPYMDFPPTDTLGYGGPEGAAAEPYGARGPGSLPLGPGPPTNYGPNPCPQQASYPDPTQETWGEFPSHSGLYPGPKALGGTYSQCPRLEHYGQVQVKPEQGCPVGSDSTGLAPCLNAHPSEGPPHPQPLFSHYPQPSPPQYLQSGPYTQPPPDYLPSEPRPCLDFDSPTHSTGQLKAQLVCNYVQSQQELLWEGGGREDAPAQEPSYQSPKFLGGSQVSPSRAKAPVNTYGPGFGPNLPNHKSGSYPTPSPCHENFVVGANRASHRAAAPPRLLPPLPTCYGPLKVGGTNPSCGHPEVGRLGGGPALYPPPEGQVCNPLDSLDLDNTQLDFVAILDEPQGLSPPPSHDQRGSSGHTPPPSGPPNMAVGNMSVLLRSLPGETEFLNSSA
UniProt Q92831: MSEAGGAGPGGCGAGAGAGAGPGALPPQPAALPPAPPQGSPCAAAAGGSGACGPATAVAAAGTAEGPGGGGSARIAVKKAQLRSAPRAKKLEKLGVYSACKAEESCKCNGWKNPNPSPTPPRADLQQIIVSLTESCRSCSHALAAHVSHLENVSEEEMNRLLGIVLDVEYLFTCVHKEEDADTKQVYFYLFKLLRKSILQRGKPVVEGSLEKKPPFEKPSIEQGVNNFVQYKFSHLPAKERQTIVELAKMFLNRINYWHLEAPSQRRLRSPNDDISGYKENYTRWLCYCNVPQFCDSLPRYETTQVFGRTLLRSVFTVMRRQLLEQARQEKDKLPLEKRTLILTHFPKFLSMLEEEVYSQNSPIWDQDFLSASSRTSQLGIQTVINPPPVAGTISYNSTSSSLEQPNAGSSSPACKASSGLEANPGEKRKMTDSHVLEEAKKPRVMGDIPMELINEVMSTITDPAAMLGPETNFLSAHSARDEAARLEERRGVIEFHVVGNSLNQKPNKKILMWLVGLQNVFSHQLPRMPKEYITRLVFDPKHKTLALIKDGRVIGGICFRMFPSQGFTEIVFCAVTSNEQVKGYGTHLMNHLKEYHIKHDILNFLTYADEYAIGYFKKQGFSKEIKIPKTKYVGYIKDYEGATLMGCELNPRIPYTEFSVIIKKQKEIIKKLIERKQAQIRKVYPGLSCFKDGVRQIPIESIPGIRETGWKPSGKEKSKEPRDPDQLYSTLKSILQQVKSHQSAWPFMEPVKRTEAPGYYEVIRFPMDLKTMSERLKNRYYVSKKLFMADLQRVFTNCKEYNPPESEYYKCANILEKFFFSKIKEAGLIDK

From paper PMC4650545 come the findings set out here.

Results are given in words; binding and its absence hold for the method and conditions named. Binding seen in cells or lysates may run through a third protein. Some results given as binding are weak or reduced against the parent protein; the word gives no strength.

As to “P300/CBP-associated factor (PCAF), endogenous in Hep3B cells (from UniProt Q92831 1-832) (enzyme)”, the binding entry is given as “binds”.
The value for “P300/CBP-associated factor (PCAF), expressed from the PCAF-expressing plasmid (from UniProt Q92831 1-832) (enzyme)” was “binds”.
